Test results: the supplement of paper PMC4683952
The other results are listed elsewhere or left out. No stated cut-off is given here; in the data, active = 2 or more and inactive = the rest. This data set is noisy: repeats of one test often differ as much as different tests do.

test system: Lgr5 (MarsCy1-Lgr5-EGFP, U2OS); experiment: cell-surface Lgr5 expression (SCi1 fluorescence, background-subtracted) relative to WT DMSO (fold of DMSO control); higher = more Lgr5 at the plasma membrane; details: U2OS MarsCy1-Lgr5-EGFP stable; treatment time: overnight; library: ActiProbe-5K (TimTec); 25 µM

cell-surface Lgr5 expression, inactive:
CCc1[nH]nc2c1C(c1ccc(Br)s1)C(C#N)=C(N)O2 (configuration not stated) 1.78
c1ccc(-c2nc(-c3cccnc3)no2)cc1 0.986
Cn1nc(C(F)(F)F)cc1C(=O)O 1
O=S(=O)(Nc1cc(Cl)cc(Cl)c1)c1ccc(Cl)cc1 1.32
COc1ccc2nc(C#N)sc2c1 0.82
S=C(NC1CCCCC1)N(C1CCCCC1)C1CCCCC1 1.39
CCN(CC)c1nc(N)nc(-c2noc(C)n2)n1 1.05
N#CC1=C2CCCCC2C(c2ccco2)C(C#N)(C#N)C1=O (configuration not stated) 1.45
CC1CCCN(CC(O)CN)C1 (configuration not stated) 1.27
O=C(NCCN1CCOCC1)c1nc[nH]n1 1.04
Cc1sc2ncnc(NC(C(=O)O)C(C)C)c2c1C (configuration not stated) 1.05
Nc1ncn(CC(O)CO)c2nc(N3CCOCC3)nc1-2 (configuration not stated) 1.22
C=CCN1C(=O)/C(=C2\SC(N3CCCCC3)=NC2=O)c2cc(Br)ccc21 1.91
C/C(=N/NC(=O)CCCCC(=O)N/N=C(\C)c1ccc(C)o1)c1ccc(C)o1 0.851
O=C(O)c1ccn(Cn2cnc([N+](=O)[O-])n2)n1 1.11
NCCOc1ccc2c(c1)OCO2 1.34
C(=N/C(/N=C/c1ccccc1)c1ccccc1)/c1ccccc1 (configuration not stated) 1.45
Clc1ccc(/N=C\c2ccc(Br)o2)cc1Cl 1.71
Cc1ccc(/C=N/N=C(/N)c2nonc2N)o1 0.939
N=c1cc(C2(O)CCCCC2)n2c(nc3ccccc32)s1 0.837
NNc1ncnc2ccccc12 0.492
CCc1ccc(C2C(C#N)=C(N)SC(N)=C2C#N)s1 1.41
O=c1oc2ccc(O)cc2s1 1.58
N#CC1=C(O)NC([O-])=C([n+]2ccccc2)C1c1ccc(Br)cc1 (configuration not stated) 1.37
Cc1c(C(=O)NNC(=O)c2nn(C)cc2Br)nnn1-c1nonc1N 1.03
Cc1nn(C(C)C(=O)NN)cc1Br (configuration not stated) 1.23
C#CCSc1nnc(N)s1 1.1
C/N=C1\C(=N/O)C=CC2CCCCC12 (configuration not stated) 0.743
O=C1N[C@H](C(=O)O)CS1 1.19
CC(C)COC(=O)C(C)Sc1n[nH]c(=O)[nH]c1=O (configuration not stated) 1.41
COCCCn1c(C23CC4CC(CC(C4)C2)C3)cn2c3c(=O)n(C)c(=O)n(C)c3nc12 1.38
Clc1ccc2[nH]c3c(c2c1)CNCC3 1.29
Cc1cc(NC(=O)CSc2nnc(C)s2)no1 1.2
C/C=C/C1OCC2(CC=C(C)CC2C)CO1 (configuration not stated) 1.02
Cc1sc(/C=N/NC(N)=O)cc1Br 1.31
Cn1nc(C(=O)O)cc1C(F)(F)F 1.11
O=C(CSc1cccs1)Nc1nccs1 0.885
CC1(C)CC(=O)C/C(=N/c2ccc3[nH]c(=O)[nH]c3c2)C1 0.983
CCN1C(=O)N(CC)C(NNC(N)=S)C1NNC(N)=S (configuration not stated) 1.02
CS(=O)(=O)Nc1ccc2c(c1)OCO2 1.25
O=C(O)c1cc(C(=O)O)[nH]n1 1.13
Cc1ccc(/C=N\c2sc3c(c2C#N)CCCC3)s1 1.32
Cc1nc2sc3c(c2c(=O)o1)CCCCC3 1.01
O=S(=O)(NCC1(c2ccccc2)CC1)c1ccc2c(c1)OCCO2 1.42
Cc1cc(O)c(C(C)(C)C)cc1S(=O)c1cc(C(C)(C)C)c(O)cc1C 0.898
O=c1c2ccccc2sc2cc3ccccc3cc12 1.06
Clc1cccc(C2Oc3ccccc3C3CC(c4ccccc4)=NN32)c1Cl (configuration not stated) 0.867
O=C(/C=C/N1CCOCC1)c1cccs1 1.22
Cn1cc(CNC(=O)c2c(NC(=O)c3cc(Br)cs3)cnn2C)cn1 1.18
CC(C)c1[nH]nc2c1C(c1ccc(Br)s1)C(C#N)=C(N)O2 (configuration not stated) 1.33
Nc1ncc(Br)cc1[N+](=O)[O-] 0.796
CCCCOC(=O)CCc1n[nH]c(=O)[nH]c1=O 1.22
CN(C)Cc1ccc(C(=O)O)o1 1.22
COC(=O)c1sc(C(=O)OC)c(O)c1O 1.08
N#CC1=C(N)OC2=C(C(=O)CCC2)C1c1ccc(Br)s1 (configuration not stated) 0.925
Cc1ccc(/C=N\c2sc3c(c2C#N)CCCC3)o1 1.05
c1csc(-c2nc3sc(-c4cccs4)nc3s2)c1 1.27
c1ccc(-n2cnnn2)cc1 0.902
C=CCN1C(=O)C2(NC(=O)c3ccccc3N2)c2ccccc21 (configuration not stated) 1.1
C(C(N\N=C1\CCCC1)=O)C(=O)NCC=C 1.64
Sc1nccc2ccccc12 1.17
O=[N+]([O-])c1ccc(N2CCCC2)c(C(F)(F)F)c1 1.1
O=[N+]([O-])c1ccc([S](=O)(O)Nc2ccc(NS(=O)(=O)c3ccccc3)cc2)cc1 1.01
O=c1[nH]cnc2c1nc(N1CCOCC1)n2C1OC(CO)C(O)C1O (configuration not stated) 1.23
Cn1c(=S)oc2ccccc21 1.09
COc1ccc2[nH]c(=O)c(=O)[nH]c2c1 1.26
O=C([O-])CCNC(=O)c1cc(=O)[nH]c(=O)[nH]1 1.09
C=CCOC1CCCCO1 (configuration not stated) 1.44
CN1CCN(Cc2c(C(=O)NN)nnn2-c2nonc2N)CC1 1.08
N#Cc1c(NC(=O)C2CCCO2)sc2c1CCCC2 (configuration not stated) 1.37
Cc1cs/c(=N\N=C/c2ccc(OCc3ccccc3)cc2)n1N 0.833

Entries above with a Cl atom:
cell-surface Lgr5 expression, inactive:
O=S(=O)(Nc1cc(Cl)cc(Cl)c1)c1ccc(Cl)cc1 1.32
Clc1ccc(/N=C\c2ccc(Br)o2)cc1Cl 1.71
Clc1ccc2[nH]c3c(c2c1)CNCC3 1.29
Clc1cccc(C2Oc3ccccc3C3CC(c4ccccc4)=NN32)c1Cl (configuration not stated) 0.867

Next part.

cell-surface Lgr5 expression, active:
O=Cc1c(Cl)nc2ccccn2c1=O 2.22
